Source: ChEMBL document CHEMBL3988442, “University of Dundee, Small-Polar-MMV Screening Library” (2021).

Mtb growth Cornell: 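Whole-cell assay for inhibitors of Mycobacterium tuberculosis growth, labelled Cornell in the record; the read-out is not stated. The concentration is filed as 10 mM, unlikely as a test dose, so the dose is not known. Higher means stronger inhibition (inferred from two other growth screens of the library). Size under these conditions: about 53,000 compounds, about 900 of them at 50% or above in at least one test.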
Mtb heat-shock: 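Assay on Mycobacterium tuberculosis, filed only as a heat shock assay from Cornell; the read-out is not stated. The concentration is filed as 10 mM, unlikely as a test dose, so the dose is not known. The record gives no direction; compounds that gave an IC50 in retests scored well above the rest, so higher reads as stronger inhibition. About 69,000 compounds were tested under these conditions; 1.4% (about 930) showed 50% or more at least once.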

The filed quantity is “Percent Effect” (%).
The record does not define 0% and 100%; most values in the screen are far below 50% and negative numbers occur (in some assays of this library far below -100).
Compounds were drawn at random from those tested, without regard to their results.
A dash means the value is not listed here; it may have been measured.

{"compound": "CN(Cc1ccccc1O)C(=O)Nc1cc(F)cc(N2CCCC2)c1", "Mtb growth Cornell": 28.86, "Mtb heat-shock": 20.83}
{"compound": "COCC1CN(C(=O)c2cccn2C)Cc2c1cnn2CC1CC1.O=C(O)C(F)(F)F", "stereo": "stereo not shown", "Mtb growth Cornell": -2.01, "Mtb heat-shock": 10.8}
{"compound": "FC(F)(F)Sc1ccc(NCc2nnc(C3CC3)o2)cc1", "Mtb growth Cornell": 24.11, "Mtb heat-shock": 9.883}
{"compound": "COc1ccc(CNc2nnc(CC(C)(C)C)o2)cc1C#N", "Mtb growth Cornell": 31.19, "Mtb heat-shock": 2.29}
{"compound": "CN(C)S(=O)(=O)c1ccc(CNc2ccc(Cl)cn2)cc1", "Mtb growth Cornell": 63.29, "Mtb heat-shock": 28.42}
{"compound": "NC(=O)NC(=O)CCN1CCCC1c1nc(C2CCCCC2)co1", "stereo": "stereo not shown", "Mtb growth Cornell": 16.42, "Mtb heat-shock": -33.55}
{"compound": "CN(C)S(=O)(=O)N1CCN(C(=O)c2cc(-c3ccc(Br)s3)n[nH]2)CC1", "Mtb growth Cornell": 28.68, "Mtb heat-shock": 0.9508}
{"compound": "Cl.Cl.Fc1ccc2c(c1)C1(CCNCC1)CC2NC1CC1", "stereo": "stereo not shown", "Mtb growth Cornell": -18.94, "Mtb heat-shock": 21.37}
{"compound": "Cc1ccc(-c2nnc(CNCCn3cc(C)cn3)o2)cc1", "Mtb growth Cornell": 51.67, "Mtb heat-shock": 31.51}
{"compound": "CN(C)c1nc(N2CCCC2)nc2c1CCN(Cc1nccn1C)CC2.O=C(O)C(F)(F)F", "Mtb growth Cornell": -26.33, "Mtb heat-shock": -3.862}
{"compound": "COCC(=O)N1CC[C@@H](N2CCOCC2)[C@@H]1Cc1cccnc1", "Mtb growth Cornell": 4.503, "Mtb heat-shock": -11.43}
{"compound": "N#Cc1cccc(NC(=O)N[C@H](CO)c2ccccc2)c1", "Mtb heat-shock": 8.563}
{"compound": "NC(=O)NC(=O)CNc1cccc(C(=O)c2ccccc2)c1", "Mtb heat-shock": -12.12}
{"compound": "CC1CCN(S(=O)(=O)NCc2ccccc2Cn2cncn2)CC1", "Mtb heat-shock": -2.244}
{"compound": "CC(C)(C)c1ccc(-n2ncc3c2CCCC3N)cc1", "stereo": "stereo not shown", "Mtb growth Cornell": 6.536, "Mtb heat-shock": 23.17}
{"compound": "CC(C)Cc1nc(CNCc2cccc(N3CCCC3=O)c2)no1", "Mtb growth Cornell": 11.6, "Mtb heat-shock": -0.5108}
{"compound": "Cn1ncc2c(N3CCC(CC(=O)N4CCCC4)CC3)ncnc21", "Mtb growth Cornell": 13.74, "Mtb heat-shock": -23.73}
{"compound": "CC(O)CN1CCC(CN(C)Cc2ccc(C(N)=O)cc2)CC1", "stereo": "stereo not shown", "Mtb growth Cornell": 27, "Mtb heat-shock": -4.281}
{"compound": "O=C(c1cnccn1)N1CCCC(c2cccc(-n3ccnc3)n2)C1", "stereo": "stereo not shown", "Mtb heat-shock": -28.81}
{"compound": "CC(C)CN1Cc2nc(N3CCC(O)CC3)ncc2C1=O", "Mtb growth Cornell": -37.66, "Mtb heat-shock": -7.767}
{"compound": "O=C(O)C(F)(F)F.O=C(O)C(F)(F)F.[H][C@@]12C[C@H](C(=O)NCC(C)C)[C@@]([H])(CN(Cc3cccnc3)C1)O2", "Mtb growth Cornell": 0.4133, "Mtb heat-shock": 4.615}
{"compound": "[H][C@@]12COC[C@]1([H])[C@@H](OCCN(C)C)CN2C(=O)c1cscn1", "Mtb growth Cornell": 8.279, "Mtb heat-shock": -12.29}
{"compound": "CCCc1nc(CNc2cccc(C(=O)N3CCCC(O)C3)c2)no1", "stereo": "stereo not shown", "Mtb growth Cornell": 8.491, "Mtb heat-shock": 11.7}
{"compound": "O=C1C(NCc2nnc3n2CCCC3)CCN1c1ccccc1F", "stereo": "stereo not shown", "Mtb heat-shock": 2.474}
{"compound": "Cc1nnc(N2CCOC(CN(C)C)C2)c(C#N)c1C", "stereo": "stereo not shown", "Mtb heat-shock": -0.9961}
{"compound": "Fc1ccccc1-c1cccc(C2CCCN(C3CCOCC3)C2)n1", "stereo": "stereo not shown", "Mtb growth Cornell": 36.89, "Mtb heat-shock": -4.484}
{"compound": "CC(=O)NCC1CCN(C(=O)c2c(C)[nH]c3ccc(Cl)cc23)CC1", "Mtb heat-shock": 19.37}
{"compound": "Cc1nc(C(C)(C)NC(=O)Nc2cccc(C#N)c2)no1", "Mtb growth Cornell": -30.09, "Mtb heat-shock": -18.85}
{"compound": "COCC(=O)NC1CCCN(c2ccc(C)cc2)C1=O", "stereo": "stereo not shown", "Mtb growth Cornell": -22.63, "Mtb heat-shock": -8.472}
{"compound": "O=C(O)C(F)(F)F.[H][C@@]12COC[C@H](C(=O)N3CCCO3)[C@]1([H])CN(C1CCCC1)C2", "Mtb growth Cornell": -20.47, "Mtb heat-shock": -14.91}
{"compound": "Cn1ncc2c(NCC3CCS(=O)(=O)C3)nc(-c3ccncc3)nc21", "stereo": "stereo not shown", "Mtb growth Cornell": -6.912, "Mtb heat-shock": 25.67}
{"compound": "CC(=O)N(Cc1ncc(C(C)C)o1)C1CCN(CCn2cccn2)C1", "stereo": "stereo not shown", "Mtb growth Cornell": 18.06, "Mtb heat-shock": 3.682}
{"compound": "[H][C@]12CN(C)CCN1C[C@@H](CO)[C@@H]2c1ccccc1", "Mtb growth Cornell": -7.318, "Mtb heat-shock": 25.75}
{"compound": "CC(=O)N1CCc2nc3sc(C(N)=O)c(N)c3c(C(F)(F)F)c2C1", "Mtb growth Cornell": 3.441, "Mtb heat-shock": -3.064}
{"compound": "FC1(F)CCN(c2ccccc2)CC12CCN(c1ncccn1)C2", "stereo": "stereo not shown", "Mtb growth Cornell": 33.05, "Mtb heat-shock": -9.814}
{"compound": "N#Cc1ccc(OCCN2CCc3cncnc3C2)cc1", "Mtb heat-shock": 8.855}
{"compound": "CN(C)c1nc2c(c(N3CCC(O)CC3)n1)CN(CC1CCNC1)CC2", "stereo": "stereo not shown", "Mtb heat-shock": 3.166}
{"compound": "Cc1ccc(C(=O)N2CCOC(c3ncc(CN(C)C)[nH]3)C2)cc1F", "stereo": "stereo not shown", "Mtb growth Cornell": 14.93, "Mtb heat-shock": -6.431}
{"compound": "CC(C)c1nccn1C1CCCN(C(=O)CCCc2ccccn2)C1", "stereo": "stereo not shown", "Mtb growth Cornell": -11.57, "Mtb heat-shock": -12.36}
{"compound": "COc1ccc(OC)c(NC(=O)N2CCCC2c2ccco2)c1", "stereo": "stereo not shown", "Mtb growth Cornell": 15.97, "Mtb heat-shock": 25.75}
{"compound": "CCCn1c(NCCc2ccccc2)nc2c(C)nn(C)c2c1=O", "Mtb heat-shock": 22.06}
{"compound": "CCc1cc(CN(C)C(=O)C2CC(=O)N(c3cccc(O)c3)C2)on1", "stereo": "stereo not shown", "Mtb growth Cornell": 18.72, "Mtb heat-shock": -1.978}
{"compound": "CCCN1CCC(CC(=O)N2CC(C)(C)[C@@](C)(O)C2)CC1", "Mtb heat-shock": 1.139}
{"compound": "CC1(C)CNC(=O)CN(C(=O)Cc2ccccc2)C1", "Mtb growth Cornell": -20.14, "Mtb heat-shock": -3.662}
{"compound": "COc1cc(C(=O)N(Cc2ccco2)C2CC2)cc2c1OCCO2", "Mtb growth Cornell": 13.45, "Mtb heat-shock": 12.13}
{"compound": "Cc1nc(CNCC2CN(C3CC3)CCO2)cs1", "stereo": "stereo not shown", "Mtb heat-shock": -13.32}
{"compound": "O=C1CCC(C(=O)Nc2ccc(=O)n(Cc3ccccc3Cl)c2)N1", "stereo": "stereo not shown", "Mtb growth Cornell": -13.24, "Mtb heat-shock": 11.35}
{"compound": "COCc1nn(C(C)C)c2c1CCN(Cc1ccoc1)C2.O=C(O)C(F)(F)F", "Mtb growth Cornell": -3.995, "Mtb heat-shock": -50.08}

For reference, 4 entries once more:

Compound	Mtb growth Cornell	Mtb heat-shock
O=C1CCC(C(=O)Nc2ccc(=O)n(Cc3ccccc3Cl)c2)N1 (stereo not shown)	-13.24%	11.35%
O=C1C(NCc2nnc3n2CCCC3)CCN1c1ccccc1F (stereo not shown)	-	2.474%
COCc1nn(C(C)C)c2c1CCN(Cc1ccoc1)C2.O=C(O)C(F)(F)F	-3.995%	-50.08%
FC1(F)CCN(c2ccccc2)CC12CCN(c1ncccn1)C2 (stereo not shown)	33.05%	-9.814%